Source: patent publication US20190256585A1
These are yes or no findings as the source states them, for the method shown. For part of these data: In cells and extracts the contact can be indirect. Some binding calls cover weakened binding; strength is not graded here.

By UniProt entry, the sequences of proteins in these tests, tags left out. Where a name states a change or a piece, a line headed by the entry shows the natural chain unless it says otherwise. Residues count along the entry.
UniProt P08670: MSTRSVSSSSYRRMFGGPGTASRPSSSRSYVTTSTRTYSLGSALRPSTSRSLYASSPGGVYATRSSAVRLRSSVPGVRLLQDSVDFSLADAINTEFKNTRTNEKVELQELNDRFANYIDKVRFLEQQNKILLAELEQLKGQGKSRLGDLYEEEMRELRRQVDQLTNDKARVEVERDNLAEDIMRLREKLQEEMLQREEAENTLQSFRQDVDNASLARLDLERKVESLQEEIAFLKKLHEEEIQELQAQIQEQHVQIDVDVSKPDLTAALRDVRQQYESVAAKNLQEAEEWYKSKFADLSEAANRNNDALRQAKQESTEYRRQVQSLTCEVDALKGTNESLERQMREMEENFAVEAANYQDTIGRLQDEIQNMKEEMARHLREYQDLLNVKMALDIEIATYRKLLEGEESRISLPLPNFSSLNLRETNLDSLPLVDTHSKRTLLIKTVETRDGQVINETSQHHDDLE
vimentin (wt) overexpressed in MCF-7 cells (stable cell line), infected with EMC-D virus: residues 2-466 of P08670

Columns and labels:
[1] = target: vimentin recombinant protein, wild-type, purified from E. coli (VR WT) (UniProt P08670); experiment: protein A pull-down of E. coli-purified vimentin with hzVSF_var13 (2:1 molar ratio), SDS-PAGE and western blot
[2] = target: vimentin (wt) overexpressed in MCF-7 cells (stable cell line), infected with EMC-D virus (UniProt P08670); experiment: immunofluorescent staining of EMC-D-infected, fixed and permeabilized stable MCF-7 cells with hzVSF_var13 (1:250)
[3] = target: vimentin WT (wild-type) overexpressed in HEK293T cells (UniProt P08670); experiment: immunoprecipitation from HEK293T lysate with hzVSF_var13 (1:100) and protein A beads, immunoblot

Measured: binding

B1: hzVSF_var13 (antibody, V domains shown)
VH: EVQLVQSGAEVKKPGASVKVSCKASGYTFTGYNMNWVRQAPGKGLEWMGNIDPYYGSDTYAQKFQGRVTMTVDKSISTAYMELSRLRSDDTAVYYCARETGTRAMDYWGQGTLVTVSS
VL: DIQMTQSPSSLSASVGDRVTITCRASENIYSNLAWYQQKPGKAPKLLIYVADNLADGVPSRFSGSGSGTDFTLTISSLQPEDFATYYCQHFYGSPRTFGGGTKVEIK
binds: all assays above
